Results are given in words; binding and its absence hold for the method and conditions named. Binding seen in cells or lysates may run through a third protein. Some binding calls cover weakened binding; strength is not graded here.
How the values were obtained:
[1] = target: Smad3 (Mothers against decapentaplegic homolog 3) (human (endogenous in KYSE-150 and ECA-109)) (UniProt P84022); test: co-IP; K150 and E109 cells treated for 30 min with or without exogenous DJ-1; lysates immunoprecipitated with anti-HSC70 or anti-Smad3 antibody, western blot for HSC70 and Smad3
[2] = target: Human PARK7/DJ1 protein (His-tag), recombinant, exogenous DJ-1 (human) (UniProt Q99497); test: co-IP; ESCC cells with exogenous DJ-1; RIPA lysates, antibody overnight at 4 °C, Protein-A magnetic beads, western blot
[3] = target: HSC70/HSPA8 (Heat shock cognate 71 kDa protein) (human (endogenous in KYSE-150 and ECA-109)) (UniProt P11142); test: co-IP; K150 and E109 cells treated for 30 min with or without exogenous DJ-1; lysates immunoprecipitated with anti-HSC70 or anti-Smad3 antibody, western blot for HSC70 and Smad3

Chains of the proteins cited; added tags and fusions are not shown.
UniProt P84022: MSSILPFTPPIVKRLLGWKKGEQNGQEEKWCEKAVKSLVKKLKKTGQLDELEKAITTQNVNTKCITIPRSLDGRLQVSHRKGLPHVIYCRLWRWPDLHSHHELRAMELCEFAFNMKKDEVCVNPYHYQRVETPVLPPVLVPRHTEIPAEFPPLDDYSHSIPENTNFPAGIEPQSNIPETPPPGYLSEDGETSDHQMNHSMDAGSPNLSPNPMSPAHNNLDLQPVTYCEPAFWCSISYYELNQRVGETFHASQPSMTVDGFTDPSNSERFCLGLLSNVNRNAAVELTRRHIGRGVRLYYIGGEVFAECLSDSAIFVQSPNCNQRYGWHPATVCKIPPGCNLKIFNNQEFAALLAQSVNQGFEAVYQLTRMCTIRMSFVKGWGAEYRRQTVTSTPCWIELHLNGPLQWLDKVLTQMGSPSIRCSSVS
UniProt Q99497: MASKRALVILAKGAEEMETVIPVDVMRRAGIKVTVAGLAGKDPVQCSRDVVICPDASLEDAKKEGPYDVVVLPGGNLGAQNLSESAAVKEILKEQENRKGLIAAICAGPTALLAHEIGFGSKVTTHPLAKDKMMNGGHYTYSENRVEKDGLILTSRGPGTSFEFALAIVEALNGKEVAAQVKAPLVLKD
UniProt P11142: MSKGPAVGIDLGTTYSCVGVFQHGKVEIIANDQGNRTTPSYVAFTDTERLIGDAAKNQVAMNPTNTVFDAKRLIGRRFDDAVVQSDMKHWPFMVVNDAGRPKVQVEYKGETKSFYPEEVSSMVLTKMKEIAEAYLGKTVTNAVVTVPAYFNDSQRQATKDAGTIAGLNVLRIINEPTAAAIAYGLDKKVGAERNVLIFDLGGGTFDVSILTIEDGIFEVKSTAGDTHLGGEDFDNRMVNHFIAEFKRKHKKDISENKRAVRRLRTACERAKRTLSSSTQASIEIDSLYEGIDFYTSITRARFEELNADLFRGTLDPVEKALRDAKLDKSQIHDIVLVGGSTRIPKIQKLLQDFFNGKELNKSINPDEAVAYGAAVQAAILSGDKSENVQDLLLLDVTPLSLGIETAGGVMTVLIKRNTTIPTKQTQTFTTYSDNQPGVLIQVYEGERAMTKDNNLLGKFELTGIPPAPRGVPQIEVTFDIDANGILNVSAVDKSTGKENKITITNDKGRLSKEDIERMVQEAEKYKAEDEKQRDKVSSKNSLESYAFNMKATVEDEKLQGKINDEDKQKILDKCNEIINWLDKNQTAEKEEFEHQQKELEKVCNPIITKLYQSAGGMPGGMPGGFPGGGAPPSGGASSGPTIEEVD

| Substance | binding [1] | binding [2] | binding [3] |
| --- | --- | --- | --- |
| HSC70/HSPA8 (Heat shock cognate 71 kDa protein) (from UniProt P11142 1-646) | binds | binds |  |
| Smad3 (Mothers against decapentaplegic homolog 3) (from UniProt P84022 1-425) |  |  | binds |
